Measurements from the supplement of paper PMC12889115.
The other results are listed elsewhere or left out. Values are raw readings; no control value is given beside them.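 In the initial screen, polymyxin B was used at a concentration that permeabilizes Salmonella's outer membrane but not its inner membrane. Maximum growth was set by DMSO wells with or without polymyxin B. Since plates varied, data were ranked per plate, and compounds giving the lowest OD600 advanced as hits.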

System: Salmonella enterica serovar Typhimurium SL1344
Assay: bacterial growth OD600 after 18 h with compound and polymyxin B; higher = more bacterial growth (less inhibition)
Settings: 50 µM, Mueller-Hinton broth

Structure (SMILES) | bacterial growth OD600 (polymyxin B 0.75 µg/mL) | bacterial growth OD600 (polymyxin B 1 µg/mL)
Cc1oc(-c2ccc(NC(=O)Cc3ccccc3)cc2)nc1CNC(=O)C1(c2ccccc2)CC1 | 0.963 | –
CCOc1ccc(CNC(C)c2cnn(-c3ccc(F)cc3F)c2C)cc1CO (centres undefined) | 0.852 | –
O=C(CCC1CCCN(C(=O)Cc2cccnc2)C1)NCc1ccccc1F (centres undefined) | 0.8 | –
Cc1ccccc1CNc1nc2nonc2nc1NC1CC1 | 0.04 | –
CN(C)S(=O)(=O)N1CCc2ccc(NC(=O)Cc3ccccc3F)cc2C1 | – | 1.13
COc1ccc(CNC(=O)CCC2CCCN(Cc3c(F)ccc(F)c3F)C2)c(OC)c1 (centres undefined) | – | 1.14
Cc1nc2ccccc2n1Cc1cc(C(=O)NCCC(C)C)no1 | – | 1.23
Cc1cc(-c2ccnc(-n3ncc(C(=O)N4CCN(C(C)C)CC4)c3C)n2)c(C)s1 | 0.823 | –
Cc1cnc(C)c(N2CCN(C(=O)C3CCC(=O)N(CCc4cccc(F)c4)C3)CC2)n1 (centres undefined) | – | 1.09

Reprinted from the results shown, 2 compounds:
Structure (SMILES) | bacterial growth OD600 (polymyxin B 0.75 µg/mL) | bacterial growth OD600 (polymyxin B 1 µg/mL)
CN(C)S(=O)(=O)N1CCc2ccc(NC(=O)Cc3ccccc3F)cc2C1 | – | 1.13
COc1ccc(CNC(=O)CCC2CCCN(Cc3c(F)ccc(F)c3F)C2)c(OC)c1 (centres undefined) | – | 1.14
